In patent publication US12414969B2, “Methods and compositions for reducing clostridium difficile infection” (priority 2014, dated 2025):
For some assays here: At least one compound was matched to its structure with a doubt left. Some of these results come from one statement about several compounds together.

Tests used:
C. difficile infection = settings: after treatment of C. difficile infection; cited from earlier work
C. difficile = assay: Addition of secondary bile acids to culture media, C. difficile growth; settings: bile acid added to culture media

Compound	Rates of relapse (C. difficile infection)	C. difficile growth inhibition in culture media (C. difficile)
Cc1ncc([N+](=O)[O-])n1CCO [metronidazole]	14-35%	–
C[C@H](CCC(=O)O)[C@H]1CC[C@H]2[C@@H]3CC[C@@H]4C[C@H](O)CC[C@]4(C)[C@H]3CC[C@]12C [LCA, lithocholic acid]	–	inhibits c. difficile growth
